These results are taken from PMC9426563.

Amino acid sequences for entries named in this document (tags omitted). A change or cut given only in a name is not applied to a line headed by its entry.
UniProt Q8IM10: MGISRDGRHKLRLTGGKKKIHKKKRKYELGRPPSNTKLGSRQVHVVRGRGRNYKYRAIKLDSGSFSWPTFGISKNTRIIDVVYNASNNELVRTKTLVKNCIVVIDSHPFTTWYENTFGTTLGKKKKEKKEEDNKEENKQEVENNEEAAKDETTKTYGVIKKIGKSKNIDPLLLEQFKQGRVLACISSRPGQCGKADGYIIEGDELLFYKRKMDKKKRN
UniProt Q8IJK8: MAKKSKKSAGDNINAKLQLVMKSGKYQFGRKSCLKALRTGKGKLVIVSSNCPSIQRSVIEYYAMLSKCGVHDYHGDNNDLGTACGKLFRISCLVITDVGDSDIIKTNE
UniProt Q8ILM5: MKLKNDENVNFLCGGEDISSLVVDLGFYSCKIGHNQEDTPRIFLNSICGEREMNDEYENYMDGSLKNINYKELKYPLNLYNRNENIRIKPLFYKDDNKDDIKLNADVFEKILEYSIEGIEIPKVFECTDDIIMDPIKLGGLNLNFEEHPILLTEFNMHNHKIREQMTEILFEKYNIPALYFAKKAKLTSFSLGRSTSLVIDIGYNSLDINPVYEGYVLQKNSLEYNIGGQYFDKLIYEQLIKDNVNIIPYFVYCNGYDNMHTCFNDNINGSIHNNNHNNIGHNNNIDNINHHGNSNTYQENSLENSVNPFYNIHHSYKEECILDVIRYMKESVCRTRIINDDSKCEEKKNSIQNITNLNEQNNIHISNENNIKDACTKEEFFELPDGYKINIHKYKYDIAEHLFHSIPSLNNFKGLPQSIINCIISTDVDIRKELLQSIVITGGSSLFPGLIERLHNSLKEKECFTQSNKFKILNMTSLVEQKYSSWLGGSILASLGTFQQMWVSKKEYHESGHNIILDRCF
UniProt C0H5B1: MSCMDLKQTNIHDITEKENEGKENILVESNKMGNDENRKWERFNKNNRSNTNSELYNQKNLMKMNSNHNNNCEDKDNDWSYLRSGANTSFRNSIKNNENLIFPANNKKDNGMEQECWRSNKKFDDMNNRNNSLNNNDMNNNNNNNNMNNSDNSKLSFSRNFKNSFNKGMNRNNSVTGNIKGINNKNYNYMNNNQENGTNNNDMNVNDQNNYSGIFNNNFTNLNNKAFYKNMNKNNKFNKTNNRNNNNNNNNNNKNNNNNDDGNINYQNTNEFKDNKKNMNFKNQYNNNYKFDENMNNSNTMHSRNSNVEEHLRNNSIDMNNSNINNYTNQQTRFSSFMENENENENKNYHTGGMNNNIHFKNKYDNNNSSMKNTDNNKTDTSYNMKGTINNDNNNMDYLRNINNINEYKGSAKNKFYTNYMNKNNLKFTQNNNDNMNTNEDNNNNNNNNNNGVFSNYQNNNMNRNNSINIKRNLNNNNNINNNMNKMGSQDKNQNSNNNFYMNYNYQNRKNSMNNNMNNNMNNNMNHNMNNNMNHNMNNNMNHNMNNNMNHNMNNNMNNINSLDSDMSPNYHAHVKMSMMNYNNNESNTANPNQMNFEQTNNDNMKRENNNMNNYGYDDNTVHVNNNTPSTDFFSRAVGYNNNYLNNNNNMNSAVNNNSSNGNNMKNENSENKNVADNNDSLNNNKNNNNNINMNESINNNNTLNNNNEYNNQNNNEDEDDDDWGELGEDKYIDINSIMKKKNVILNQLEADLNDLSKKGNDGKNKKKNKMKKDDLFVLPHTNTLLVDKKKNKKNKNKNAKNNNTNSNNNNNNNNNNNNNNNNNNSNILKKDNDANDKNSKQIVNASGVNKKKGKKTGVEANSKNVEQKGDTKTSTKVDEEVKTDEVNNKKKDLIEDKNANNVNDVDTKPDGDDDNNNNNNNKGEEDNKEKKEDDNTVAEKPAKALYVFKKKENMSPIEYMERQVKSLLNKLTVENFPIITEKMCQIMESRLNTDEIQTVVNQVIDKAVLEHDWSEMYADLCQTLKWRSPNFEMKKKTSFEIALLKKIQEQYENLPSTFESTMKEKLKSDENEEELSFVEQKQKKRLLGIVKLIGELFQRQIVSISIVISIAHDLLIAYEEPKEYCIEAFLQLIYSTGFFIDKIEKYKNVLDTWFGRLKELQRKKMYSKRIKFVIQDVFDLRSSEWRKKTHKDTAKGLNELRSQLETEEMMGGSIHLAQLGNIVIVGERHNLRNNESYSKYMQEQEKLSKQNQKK
UniProt Q8IAM0: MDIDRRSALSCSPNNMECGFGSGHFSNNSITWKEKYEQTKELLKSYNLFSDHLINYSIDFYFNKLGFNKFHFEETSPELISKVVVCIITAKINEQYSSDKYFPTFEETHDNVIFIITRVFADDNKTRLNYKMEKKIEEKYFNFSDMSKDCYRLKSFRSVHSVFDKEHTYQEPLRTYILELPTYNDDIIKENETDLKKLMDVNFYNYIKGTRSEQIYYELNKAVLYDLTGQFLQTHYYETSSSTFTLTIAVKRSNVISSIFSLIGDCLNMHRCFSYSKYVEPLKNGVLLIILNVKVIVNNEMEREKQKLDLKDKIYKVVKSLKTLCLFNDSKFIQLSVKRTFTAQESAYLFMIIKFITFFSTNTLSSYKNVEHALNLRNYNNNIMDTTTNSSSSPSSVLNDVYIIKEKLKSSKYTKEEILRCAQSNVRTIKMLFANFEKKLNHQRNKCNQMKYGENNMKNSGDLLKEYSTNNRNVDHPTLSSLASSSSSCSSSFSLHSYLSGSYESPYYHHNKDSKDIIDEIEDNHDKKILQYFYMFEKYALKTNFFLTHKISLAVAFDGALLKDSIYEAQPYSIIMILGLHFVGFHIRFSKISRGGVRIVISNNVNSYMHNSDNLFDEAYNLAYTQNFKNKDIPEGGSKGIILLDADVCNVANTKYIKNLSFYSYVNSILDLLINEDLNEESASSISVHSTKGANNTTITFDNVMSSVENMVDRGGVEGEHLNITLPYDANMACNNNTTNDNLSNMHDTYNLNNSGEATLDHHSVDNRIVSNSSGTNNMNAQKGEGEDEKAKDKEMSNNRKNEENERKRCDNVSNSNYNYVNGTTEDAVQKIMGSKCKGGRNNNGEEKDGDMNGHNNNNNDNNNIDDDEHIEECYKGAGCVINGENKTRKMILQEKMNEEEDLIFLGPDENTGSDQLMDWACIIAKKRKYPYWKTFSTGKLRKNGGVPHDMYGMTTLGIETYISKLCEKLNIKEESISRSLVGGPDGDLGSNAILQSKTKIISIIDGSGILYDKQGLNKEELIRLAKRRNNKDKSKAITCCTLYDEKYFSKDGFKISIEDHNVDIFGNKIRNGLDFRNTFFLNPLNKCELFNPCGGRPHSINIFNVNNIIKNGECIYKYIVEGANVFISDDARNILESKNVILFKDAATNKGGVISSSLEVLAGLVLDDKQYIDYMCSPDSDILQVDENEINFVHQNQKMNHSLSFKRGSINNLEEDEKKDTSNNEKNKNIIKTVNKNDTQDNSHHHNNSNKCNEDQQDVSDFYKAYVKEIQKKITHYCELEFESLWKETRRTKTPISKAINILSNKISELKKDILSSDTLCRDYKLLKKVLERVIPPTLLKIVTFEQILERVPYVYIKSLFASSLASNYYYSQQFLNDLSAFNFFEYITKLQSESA
UniProt C0H4L1: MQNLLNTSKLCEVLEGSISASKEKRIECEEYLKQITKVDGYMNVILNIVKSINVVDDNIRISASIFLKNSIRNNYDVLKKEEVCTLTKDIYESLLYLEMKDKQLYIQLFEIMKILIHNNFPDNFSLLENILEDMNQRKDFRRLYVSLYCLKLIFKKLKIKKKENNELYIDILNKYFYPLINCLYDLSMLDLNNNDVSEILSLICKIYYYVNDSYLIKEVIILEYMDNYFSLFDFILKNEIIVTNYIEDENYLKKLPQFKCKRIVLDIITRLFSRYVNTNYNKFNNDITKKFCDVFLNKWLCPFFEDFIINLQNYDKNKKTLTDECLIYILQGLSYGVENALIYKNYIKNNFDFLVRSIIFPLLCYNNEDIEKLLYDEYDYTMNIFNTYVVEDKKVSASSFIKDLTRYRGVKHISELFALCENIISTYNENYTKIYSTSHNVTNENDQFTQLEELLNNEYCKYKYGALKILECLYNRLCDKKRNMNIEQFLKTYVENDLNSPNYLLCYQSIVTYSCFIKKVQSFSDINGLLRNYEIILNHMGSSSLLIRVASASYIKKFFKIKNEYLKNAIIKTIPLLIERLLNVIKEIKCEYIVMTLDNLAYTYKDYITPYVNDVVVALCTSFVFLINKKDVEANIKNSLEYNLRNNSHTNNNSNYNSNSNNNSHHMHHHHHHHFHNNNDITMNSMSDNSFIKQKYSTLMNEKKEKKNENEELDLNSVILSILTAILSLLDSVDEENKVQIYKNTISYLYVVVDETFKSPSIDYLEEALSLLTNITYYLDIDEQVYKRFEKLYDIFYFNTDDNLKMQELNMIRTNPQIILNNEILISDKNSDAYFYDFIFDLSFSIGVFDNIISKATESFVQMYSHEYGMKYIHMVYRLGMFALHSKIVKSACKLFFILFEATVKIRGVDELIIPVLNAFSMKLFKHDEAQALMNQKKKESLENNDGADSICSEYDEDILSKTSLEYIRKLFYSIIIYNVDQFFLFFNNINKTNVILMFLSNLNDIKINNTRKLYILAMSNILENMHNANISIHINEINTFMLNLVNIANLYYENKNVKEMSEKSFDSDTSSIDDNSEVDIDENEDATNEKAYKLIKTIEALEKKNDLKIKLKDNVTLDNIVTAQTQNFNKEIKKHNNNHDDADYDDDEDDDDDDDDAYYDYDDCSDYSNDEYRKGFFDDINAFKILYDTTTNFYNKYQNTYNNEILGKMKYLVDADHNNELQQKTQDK
UniProt Q8I2X7: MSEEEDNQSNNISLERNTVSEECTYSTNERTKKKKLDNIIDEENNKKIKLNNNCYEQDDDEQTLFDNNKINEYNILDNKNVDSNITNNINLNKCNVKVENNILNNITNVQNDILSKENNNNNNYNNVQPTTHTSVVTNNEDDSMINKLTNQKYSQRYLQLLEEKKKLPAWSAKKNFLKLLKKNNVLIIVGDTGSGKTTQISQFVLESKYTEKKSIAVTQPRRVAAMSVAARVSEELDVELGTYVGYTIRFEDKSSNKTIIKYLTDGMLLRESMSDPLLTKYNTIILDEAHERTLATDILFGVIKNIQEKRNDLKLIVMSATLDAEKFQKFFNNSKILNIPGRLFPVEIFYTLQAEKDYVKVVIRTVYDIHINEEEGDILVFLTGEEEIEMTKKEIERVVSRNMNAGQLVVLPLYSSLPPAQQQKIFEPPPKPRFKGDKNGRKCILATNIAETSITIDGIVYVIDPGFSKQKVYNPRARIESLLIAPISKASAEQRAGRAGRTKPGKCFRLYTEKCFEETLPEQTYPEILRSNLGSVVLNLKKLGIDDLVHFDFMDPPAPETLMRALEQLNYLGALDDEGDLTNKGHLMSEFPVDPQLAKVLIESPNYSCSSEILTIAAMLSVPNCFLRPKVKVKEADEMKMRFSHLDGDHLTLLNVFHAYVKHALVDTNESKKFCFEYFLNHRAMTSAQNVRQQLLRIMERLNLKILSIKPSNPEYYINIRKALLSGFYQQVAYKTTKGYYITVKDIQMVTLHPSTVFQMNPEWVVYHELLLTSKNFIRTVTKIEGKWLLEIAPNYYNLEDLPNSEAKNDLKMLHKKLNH
UniProt Q8IK93: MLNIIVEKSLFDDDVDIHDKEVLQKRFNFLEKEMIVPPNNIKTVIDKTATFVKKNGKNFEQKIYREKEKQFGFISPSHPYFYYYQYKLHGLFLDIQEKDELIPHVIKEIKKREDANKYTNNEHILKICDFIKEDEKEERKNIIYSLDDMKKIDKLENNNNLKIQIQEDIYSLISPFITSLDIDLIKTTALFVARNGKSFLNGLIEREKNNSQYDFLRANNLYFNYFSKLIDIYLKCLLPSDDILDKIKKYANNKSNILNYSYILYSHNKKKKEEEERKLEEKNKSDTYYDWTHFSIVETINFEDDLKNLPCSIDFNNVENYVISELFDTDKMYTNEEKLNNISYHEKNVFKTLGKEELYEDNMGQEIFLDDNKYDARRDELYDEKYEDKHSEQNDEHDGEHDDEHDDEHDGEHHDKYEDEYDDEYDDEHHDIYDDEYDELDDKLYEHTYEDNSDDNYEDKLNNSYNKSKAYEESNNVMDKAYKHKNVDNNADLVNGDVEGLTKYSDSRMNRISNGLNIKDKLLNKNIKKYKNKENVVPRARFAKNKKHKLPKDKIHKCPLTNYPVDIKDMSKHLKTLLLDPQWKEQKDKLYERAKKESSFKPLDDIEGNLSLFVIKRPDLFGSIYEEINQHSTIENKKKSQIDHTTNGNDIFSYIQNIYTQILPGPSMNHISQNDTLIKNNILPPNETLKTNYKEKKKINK
UniProt Q8I4Y3: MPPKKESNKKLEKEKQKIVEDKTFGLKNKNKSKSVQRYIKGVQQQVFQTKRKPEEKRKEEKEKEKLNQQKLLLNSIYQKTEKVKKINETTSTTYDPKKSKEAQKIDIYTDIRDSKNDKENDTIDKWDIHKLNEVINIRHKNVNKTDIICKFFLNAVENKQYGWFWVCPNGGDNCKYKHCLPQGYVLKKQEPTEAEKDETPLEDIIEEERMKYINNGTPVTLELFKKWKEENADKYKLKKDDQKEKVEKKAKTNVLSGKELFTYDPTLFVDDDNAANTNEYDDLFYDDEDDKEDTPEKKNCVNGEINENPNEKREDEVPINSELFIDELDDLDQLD

These are yes or no findings as the source states them, for the method shown. In cells and extracts the contact can be indirect. Here binding means that the protein was enriched with, or labelled near, the bait; the list need not be complete.

In this test the target is PfNIF4-FKBP-TurboID fusion protein (P. falciparum (endogenous locus of the 3D7 parasite, tagged)) (UniProt Q8IJR8). As to the kind of experiment: proximity labelling; TurboID: synchronized NIF4^TurboID schizonts (36 hpi) labelled with 500 μM biotin at 37°C for 10 min; biotinylated proteins purified from the lysate (Pierce IP Lysis Buffer) on streptavidin magnetic beads, digested on the beads, LC-MS/MS; 3D7 parasites as negative control; three biological replicates; hits filtered against a nuclear proteome data set.
On to “26S protease regulatory subunit 6B, putative (from UniProt Q8I1V1)”, for which the binding result is “binds”.

Consider “40S ribosomal protein S4, putative (from UniProt Q25804)”, for which the binding entry is reported as “binds”.

As to “40S ribosomal protein S7, putative (from UniProt Q8IET7)”, the binding result is “binds”.

For the substance “40S ribosomal protein S8e, putative (from UniProt Q8IM10)”, the binding entry is reported as “binds”.

As for “40S ribosomal protein S19 (PF3D7_0422400) (from UniProt Q8IFP2)”, the binding entry is “binds”.

“60S acidic ribosomal protein P1, putative (from UniProt Q8IIX0)”: the binding entry was “binds”.

As for “60S ribosomal protein L21 (from UniProt Q8ILK3)”, the binding entry is listed as “binds”.

Consider “60S ribosomal protein L27 (from UniProt Q8IKM5)”, for which the binding result is given as “binds”.

In the case of “60S ribosomal protein L30e, putative (from UniProt Q8IJK8)”, the binding result is reported as “binds”.

“AP2 domain transcription factor SIP2 (from UniProt C6KSN9)”: the binding entry is “binds”.

Consider “DNA-directed RNA polymerase II subunit RPB3 (from UniProt Q8I2S6)”, for which the binding result is reported as “binds”.

Regarding “Obg-like ATPase 1, putative (from UniProt Q8IBM9)”, the binding entry is recorded as “binds”.

As to “actin-related protein ARP4 (from UniProt Q8ILM5)”, the binding entry is on record as “binds”.

As for “eukaryotic translation initiation factor 4 gamma (from UniProt C0H5B1)”, the binding result is listed as “binds”.

As to “glutamate dehydrogenase, putative (from UniProt Q8IAM0)”, the binding entry is “binds”.

For the substance “histone H3 (H3.3, PF3D7_0617900) (from UniProt C6KT19)”, the binding result is “binds”.

As to “histone acetyltransferase GCN5 (from UniProt Q8IB67 1-1465)”, the binding entry is “binds”.

As for “importin-7, putative (from UniProt C0H4L1)”, the binding entry is “binds”.

“pre-mRNA-splicing factor ATP-dependent RNA helicase PRP43, putative (from UniProt Q8I2X7)”: the binding entry was “binds”.

On to “single-stranded DNA-binding protein, putative (from UniProt Q8I3Q6)”, for which the binding result is “binds”.

On to “splicing factor 3A subunit 1, putative (from UniProt Q8IK93)”, for which the binding entry is listed as “binds”.

“translation machinery-associated protein 46, putative (from UniProt Q8I4Y3)”: the binding result is given as “binds”.

In the case of “ubiquitin carboxyl-terminal hydrolase 14 (from UniProt Q8I3J3)”, the binding result was “binds”.
